We go through one molecule from PMC3042988, “The activation mechanism of Irga6, an interferon-inducible GTPase contributing to mouse resistance against Toxoplasma gondii” (BMC Biology, 2011).

The chains behind the UniProt entries cited, without tags or fusion partners. Where a name states a change or a piece, a line headed by the entry shows the natural chain unless it says otherwise.
UniProt Q9QZ85: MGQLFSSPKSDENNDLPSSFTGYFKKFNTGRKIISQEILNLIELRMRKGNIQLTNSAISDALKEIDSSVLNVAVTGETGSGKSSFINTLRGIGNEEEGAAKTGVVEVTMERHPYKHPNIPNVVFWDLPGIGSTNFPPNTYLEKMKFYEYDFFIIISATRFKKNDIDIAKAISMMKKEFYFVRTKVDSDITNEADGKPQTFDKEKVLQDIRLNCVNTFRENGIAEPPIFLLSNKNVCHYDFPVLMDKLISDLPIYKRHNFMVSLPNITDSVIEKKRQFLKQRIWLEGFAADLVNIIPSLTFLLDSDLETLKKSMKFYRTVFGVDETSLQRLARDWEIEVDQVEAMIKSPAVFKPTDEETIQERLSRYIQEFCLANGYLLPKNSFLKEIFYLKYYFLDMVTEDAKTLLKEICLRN

Results are given in words; binding and its absence hold for the method and conditions named. Binding seen in cells or lysates may run through a third protein. For some of these results: A result given as binding can be weak or reduced; the word gives no strength.

Holding throughout (assay): pull-down; GST-Irga6 bound to glutathione Sepharose 4B, incubated overnight at 4°C with postnuclear supernatant of IFNγ-induced gs3T3 cells (PBS/0.1% Thesit/3 mM MgCl2) with 0.5 mM GDP; Western blot; only the target purified
Test [1] deals with GST-Irga6 mutant of Ser132 (mouse) (UniProt Q9QZ85).
Test [2] deals with GST-Irga6 mutant of Arg159 (mouse) (UniProt Q9QZ85).
Test [3] concerns the target GST-Irga6 mutant of Asn191 (mouse) (UniProt Q9QZ85).
The target of test [4] is GST-Irga6 mutant of Gly103 (mouse) (UniProt Q9QZ85).

B1: Irgm3 (IGTP) (protein, UniProt Q9DCE9 1-423)
chain: MDLVTKLPQNIWKTFTLFINMANYLKRLISPWSKSMTAGESLYSSQNSSSPEVIEDIGKAVTEGNLQKVIGIVKDEIQSKSRYRVKIAVTGDSGNGMSSFINALRFIGHEEEDSAPTGVVRTTKKPACYSSDSHFPYVELWDLPGLGATAQSVESYLEEMQISTFDLIIIVASEQFSSNHVKLAITMQRMRKRFYVVWTKLDRDLSTSTFPEPQLLQSIQRNIRENLQQAQVRDPPLFLISCFSPSFHDFPELRNTLQKDIFSIRYRDPLEIISQVCDKCISNKAFSLKEDQMLMKDLEAAVSSEDDTANLERGLQTYQKLFGVDDGSLQQVARSTGRLEMGSRALQFQDLIKMDRRLELMMCFAVNKFLRLLESSWWYGLWNVVTRYFRHQRHKLVIEIVAENTKTSLRKALKDSVLPPEIH
For B1, the binding entry is “binds” in test [1], “no binding” in test [2], “no binding” in test [3] and “binds” in test [4].
